Data from patent US20240066115A1, “DETERMINATION AND USES OF CD8+ T CELL EPITOPES” (priority 2021, published 2024).
At least one peptide structure holds a part that was inferred or is arguable (an end, a ring closure or a residue). Where a SMILES comes first, the peptide text is derived from it.

Protein sequences, listed by entry. Tags and fused reporters are not part of them. Lines headed by an entry give the natural chain unless they say otherwise; changes in a name come on top.
UniProt P28062: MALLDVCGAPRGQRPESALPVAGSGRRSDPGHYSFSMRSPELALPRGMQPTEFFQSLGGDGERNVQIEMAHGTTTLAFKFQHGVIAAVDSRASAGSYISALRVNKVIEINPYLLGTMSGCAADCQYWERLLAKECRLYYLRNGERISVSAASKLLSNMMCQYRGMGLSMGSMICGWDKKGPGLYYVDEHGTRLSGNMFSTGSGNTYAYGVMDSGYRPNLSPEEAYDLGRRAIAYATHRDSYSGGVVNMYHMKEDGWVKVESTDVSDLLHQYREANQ
UniProt P28065: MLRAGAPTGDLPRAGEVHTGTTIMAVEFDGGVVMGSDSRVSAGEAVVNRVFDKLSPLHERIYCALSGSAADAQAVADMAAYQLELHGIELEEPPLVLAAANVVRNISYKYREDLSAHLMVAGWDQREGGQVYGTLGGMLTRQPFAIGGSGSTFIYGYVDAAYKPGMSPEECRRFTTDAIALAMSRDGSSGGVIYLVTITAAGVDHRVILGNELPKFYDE
UniProt P40306: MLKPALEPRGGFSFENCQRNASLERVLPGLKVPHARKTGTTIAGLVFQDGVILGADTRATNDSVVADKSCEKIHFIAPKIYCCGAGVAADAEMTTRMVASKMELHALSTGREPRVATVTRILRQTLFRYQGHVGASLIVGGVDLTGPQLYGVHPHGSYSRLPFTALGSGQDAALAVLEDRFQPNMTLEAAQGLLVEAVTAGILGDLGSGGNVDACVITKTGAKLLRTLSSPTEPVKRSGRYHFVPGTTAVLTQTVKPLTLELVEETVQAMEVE

How the values were obtained:
[1] = tested on: tumor infiltrating lymphocytes; experiment: Flow cytometry of tumor infiltrating lymphocytes, GL261/vIII tumors; format: in vivo, mice
[2] = tested on: CT2A/vIII; experiment: Intracranial tumor model CT2A/vIII; format: in vivo, mice; conditions: EGFRvIII+ derivative of CT-2A
[3] = target: human 20S immunoproteasome (Homo sapiens, UniProt P28062+P28065+P40306); experiment: In vitro proteasome digestion, MALDI-TOF; format: biochemical
[4] = 20S immunoproteasome digest, MALDI-TOF

CC(C)C[C@H](N)C(=O)N[C@@H](CCC(=O)O)C(=O)N[C@@H](CCC(=O)O)C(=O)N[C@@H](CCCCN)C(=O)N[C@@H](CCCCN)C(=O)N[C@@H](Cc1ccc(O)cc1)C(=O)N[C@@H](CC(N)=O)C(=O)N[C@@H](Cc1ccc(O)cc1)C(=O)N[C@H](C(=O)N[C@H](C(=O)N[C@H](C(=O)N[C@@H](CC(=O)O)C(=O)N[C@@H](Cc1c[nH]cn1)C(=O)O)[C@@H](C)O)C(C)C)C(C)C [Y6-pepvIII] (H-LEEKKYNYVVTDH-OH)
CD3+/CD8+ cell population relative to control mice ([1]; GL261/vIII tumors): significant increase | CD45+/CD11c+ cells in tumors ([1]; GL261/vIII tumors): significant increase | tumor infiltrating CD3+/CD4+ cells as proportion of CD45+ cells ([1]; GL261/vIII tumors): significant reduction | proportion of tumor infiltrating CD3+/CD4+ that were CD25+ ([1]; relative to control or pepvIII vaccinated mice): significantly lower | vaccine efficacy in second intracranial model [2]: increased efficacy | number of fragments that are linear subsequences of the parental peptide [3, 4]: 13 | number of fragments that result from PCPS mediated recombination [3, 4]: 58 | proportion of parental peptide remaining ([3]; after 30 minutes incubation): significantly lower | susceptibility to proteasomal digestion ([3]; each time point): readily processed
